From PMC4595342
Results are given in words; binding and its absence hold for the method and conditions named. Binding seen in cells or lysates may run through a third protein. Sequences can lack the tags named with a protein.

Chains of the proteins cited; added tags and fusions are not shown.
UniProt Q9R1K5: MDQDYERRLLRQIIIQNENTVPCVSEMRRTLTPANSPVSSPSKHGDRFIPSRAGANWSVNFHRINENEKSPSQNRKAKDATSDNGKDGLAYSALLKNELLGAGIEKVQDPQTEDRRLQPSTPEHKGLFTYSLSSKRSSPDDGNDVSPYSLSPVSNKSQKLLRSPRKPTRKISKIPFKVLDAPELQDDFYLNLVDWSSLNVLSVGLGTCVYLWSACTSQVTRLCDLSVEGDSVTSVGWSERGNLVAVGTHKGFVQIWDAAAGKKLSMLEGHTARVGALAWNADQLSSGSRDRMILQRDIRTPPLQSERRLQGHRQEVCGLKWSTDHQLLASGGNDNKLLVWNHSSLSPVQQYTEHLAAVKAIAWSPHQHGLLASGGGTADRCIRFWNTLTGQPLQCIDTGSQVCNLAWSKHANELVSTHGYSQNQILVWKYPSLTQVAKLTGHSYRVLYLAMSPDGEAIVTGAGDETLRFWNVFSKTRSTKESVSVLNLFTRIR
UniProt Q9JJ66: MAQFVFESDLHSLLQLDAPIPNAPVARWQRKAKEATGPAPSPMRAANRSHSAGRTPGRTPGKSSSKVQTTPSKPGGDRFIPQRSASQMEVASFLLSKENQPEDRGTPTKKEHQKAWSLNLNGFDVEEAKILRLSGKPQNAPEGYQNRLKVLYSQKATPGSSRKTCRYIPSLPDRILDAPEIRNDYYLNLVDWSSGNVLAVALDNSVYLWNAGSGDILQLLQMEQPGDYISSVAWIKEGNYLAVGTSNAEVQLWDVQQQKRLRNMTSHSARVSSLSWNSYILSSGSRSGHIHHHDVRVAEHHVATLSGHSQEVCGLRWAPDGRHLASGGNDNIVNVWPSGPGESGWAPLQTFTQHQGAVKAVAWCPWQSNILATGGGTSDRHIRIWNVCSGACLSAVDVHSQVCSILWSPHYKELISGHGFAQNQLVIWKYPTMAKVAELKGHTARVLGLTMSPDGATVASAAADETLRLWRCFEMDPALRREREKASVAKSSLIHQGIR

T1: KIF7-GFP (mouse) (UniProt B7ZNG0)
T1 sequence: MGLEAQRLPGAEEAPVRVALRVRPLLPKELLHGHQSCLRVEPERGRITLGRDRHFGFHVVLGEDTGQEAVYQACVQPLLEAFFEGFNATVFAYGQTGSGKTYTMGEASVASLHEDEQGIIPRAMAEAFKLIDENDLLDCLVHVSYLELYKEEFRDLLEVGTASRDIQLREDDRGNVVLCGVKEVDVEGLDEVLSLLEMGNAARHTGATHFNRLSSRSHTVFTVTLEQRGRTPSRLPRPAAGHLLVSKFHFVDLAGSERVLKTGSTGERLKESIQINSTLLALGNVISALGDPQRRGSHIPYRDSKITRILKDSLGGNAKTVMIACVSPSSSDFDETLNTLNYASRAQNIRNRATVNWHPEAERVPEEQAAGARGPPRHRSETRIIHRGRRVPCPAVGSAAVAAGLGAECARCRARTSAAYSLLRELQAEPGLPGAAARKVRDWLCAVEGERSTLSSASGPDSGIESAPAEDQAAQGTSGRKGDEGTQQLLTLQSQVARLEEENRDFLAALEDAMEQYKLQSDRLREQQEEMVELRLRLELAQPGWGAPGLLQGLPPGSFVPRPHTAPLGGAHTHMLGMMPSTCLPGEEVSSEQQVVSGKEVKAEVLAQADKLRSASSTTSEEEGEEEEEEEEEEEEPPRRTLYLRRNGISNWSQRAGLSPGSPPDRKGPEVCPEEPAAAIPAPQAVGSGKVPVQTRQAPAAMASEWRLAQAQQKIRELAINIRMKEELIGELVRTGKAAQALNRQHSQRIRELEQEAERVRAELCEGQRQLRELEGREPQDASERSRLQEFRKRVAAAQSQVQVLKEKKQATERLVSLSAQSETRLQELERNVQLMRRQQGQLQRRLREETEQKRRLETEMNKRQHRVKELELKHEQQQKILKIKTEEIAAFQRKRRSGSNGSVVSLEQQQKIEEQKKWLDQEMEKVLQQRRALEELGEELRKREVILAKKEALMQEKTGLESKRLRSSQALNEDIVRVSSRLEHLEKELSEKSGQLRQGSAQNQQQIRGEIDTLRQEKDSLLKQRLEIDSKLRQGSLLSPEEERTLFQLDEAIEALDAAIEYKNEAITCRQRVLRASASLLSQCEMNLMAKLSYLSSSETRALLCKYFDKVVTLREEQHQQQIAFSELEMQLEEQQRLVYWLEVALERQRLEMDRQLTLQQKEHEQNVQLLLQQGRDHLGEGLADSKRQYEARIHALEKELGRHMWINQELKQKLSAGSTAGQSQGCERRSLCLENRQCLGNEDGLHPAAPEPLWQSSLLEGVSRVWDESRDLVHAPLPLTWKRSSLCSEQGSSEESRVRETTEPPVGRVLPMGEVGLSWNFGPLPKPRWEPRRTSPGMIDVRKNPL

B1: p21 (protein, UniProt P39689 1-159)
chain: MSNPGDVRPVPHRSKVCRCLFGPVDSEQLRRDCDALMAGCLQEARERWNFDFVTETPLEGNFVWERVRSLGLPKVYLSPGSRSRDDLGGDKRPSTSSALLQGPAPEDHVALSLSCTLVSERPEDSPGGPGTSQGRKRRQTSLTDFYHSKRRLVFCKRKP

molecular target: T1, KIF7-GFP (mouse); assay: co-IP; KIF7-GFP precipitated with GFP-trap agarose beads (Chromotek GFP trap kit) from asynchronous KIF7-GFP expressing MLE15 cells; immunoblots of the precipitate; agarose beads as negative control

binding	Molecule
no binding	FZR1 (CDH1) (from UniProt Q9R1K5 1-493)
no binding	pCDK2 (from UniProt P97377 1-346)
no binding	CDC20 (p55) (from UniProt Q9JJ66 1-499)
no binding	B1
